At least one compound was matched to its structure with a doubt left.
Legend:
cNF-κB = details: in vitro; cited from earlier work
Mdx mice [1] = details: cited from earlier work
[2] = tested on: mouse dystrophin exon 23 pre-mRNA; test: RT-PCR exon 23 skipping in Mdx mice; type: in vivo; details: 4 weeks treatment
NF-κB p65 = details: cited from earlier work
dystrophin protein = test: Western blot dystrophin protein levels in Mdx mice; type: in vivo, mouse; details: 4 weeks, combination compared to M23D PMO monotherapy
Mdx mice [3] = test: Inflammation and fibrosis histology (H&E, picrosirius red) of quadriceps in Mdx mice; type: in vivo, mouse; details: compared to Mdx mice treated with saline; 4 weeks; M23D PMO 40 mg/kg IV weekly, CAT-1004 1% in diet
activated NF-kB pathways = details: cited from earlier work

For `CC/C=C\C/C=C\C/C=C\C/C=C\C/C=C\C/C=C\CCC(=O)NCCNC(=O)c1ccccc1O` [CAT-1004, N-(2-[(4Z,7Z,10Z,13Z,16Z,19Z)-docosa-4,7,10,13,16,19-hexaenamido]ethyl)-2-hydroxybenzamide], the cNF-κB activation (cNF-κB) is given as “inhibit cNF-κB activation in vitro”, the Cumulative run distance (Mdx mice [1]; mdx mice, long-term studies) is given as “increased cumulative run distance” and the Exercise endurance (Mdx mice [1]; mdx mice) is given as “increased exercise endurance”. The Inflammation and fibrosis (Mdx mice [1]; mdx mice) was “reduced inflammation and fibrosis”, the “Muscle regeneration, degeneration, inflammation and function” value (Mdx mice [1]; mdx mice) was “enhance muscle regeneration, reduce muscle degeneration and inflammation, and preserve muscle function” and the Dystrophic phenotype (Mdx mice [1]; mdx mouse, long-term treatment) was “improves the phenotype”. The Diaphragm function (Mdx mice [1]; mouse DMD model) was “improved diaphragm function”, the “Exon 23 skipping in quadriceps, diaphragm and heart (RT-PCR)” value [2] was “neither exon skipping nor dystrophin production were observed” and the Dystrophic phenotype (NF-κB p65; GRMD dog, long-term treatment) was “improves the phenotype”. For the same compound, the Diaphragm function (NF-κB p65; dog DMD model) was “improved diaphragm function”, the “NF-κB activity (p65 binding to DNA, TNF-α secretion)” value (NF-κB p65; dog model of DMD) was “decreases NF-κB activity” and the “NF-κB p65-dependent inflammatory responses and downstream proinflammatory genes” value (NF-κB p65; golden retriever DMD model) was “significantly inhibit”. The “Dystrophin production in quadriceps, diaphragm and heart (Western blot)” value (dystrophin protein) was “neither exon skipping nor dystrophin production were observed”, the “Inflammation and fibrosis in quadriceps” value (Mdx mice [3]) was “reduction of inflammation and fibrosis” and the “Levels of the p65 subunit of NF-κB” value (activated NF-kB pathways; healthy adult humans, compared to placebo or salicylate and omega-3 DHA as separate molecules) was “lowers levels of the p65 subunit of NF-κB”. For the same compound, the “Biomarkers of inflammation in whole blood” value (activated NF-kB pathways; humans) was “decrease of biomarkers of inflammation in whole blood”.
